Test results from PubChem BioAssay AID1508600 (Functional Genomics Laboratory (NCATS/FGL), 2020).
About 3,700 (7%) of roughly 53,000 sequences were called active.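 The calls were made as follows: active = gene knockdowns whose robust z-score for IL-1 alpha signal is at least 2 or at most -2, so actives lie on both sides; inactive = the rest.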 Some of the results follow.

assay: Components of the Cytosolic LPS Sensing Pathway: Gene Identification via Genome-wide siRNA Screen; settings: RAW264.7 macrophages, IL-1a HTRF, actives lie on both sides, screened at 100 nM (by protocol), cells primed 5 h with Pam3CSK4 first
From the text: Non-canonical inflammasome activation by cytosolic LPS is a critical component of the host response to Gram-negative bacterial infection, however we lack a comprehensive understanding of the cellular processes that control this pathway. Here we describe a genome-wide siRNA screen to identify genes regulating the mouse macrophage IL-1 alpha response to cytosolic LPS.
RAW264.7 cells were maintained in complete DMEM media, comprising DMEM with 4.5 g/L glucose, 10% FBS (Gemini Bio-Products, West Sacramento, CA), 2 mM Glutamine (Lonza) and 20 mM HEPES (Lonza), hereafter complete DMEM.
The RNAi screen was conducted in 384-well format using the Ambion Silencer Mouse Genome siRNA Library (#4391425), which consists of three unique, nonoverlapping, nonpooled siRNAs for each of 17,000 gene targets. siRNA reagents ([…]) were stamped into 384-well white flat-bottom microplates (Corning, 3570) using a Velocity11 VPrep liquid handling system (Agilent) integrated into a BioCel robotic platform (Agilent) in columns 1-22, leaving columns 23-24 empty for negative (Ambion, Negative control #1) and positive (mouse Casp4) controls, respectively. The median value of each plate's negative control column was used to normalize sample wells, and the positive control was used to assess transfection efficiency and assay performance.
Lipofectamine RNAiMAX Transfection Reagent ([…]; Invitrogen) was added in […] serum-free, antibiotic-free media to plate wells using a Thermo Scientific Matrix WellMate and Microplate Stacker. Plates were incubated for 45 min at room temperature to allow for the sufficient formation of siRNA-lipid complexes. Cells were seeded at a density of 1x10^4 cells per well in 20 microL media containing 20% (vol/vol) FBS without antibiotics. The final concentration of siRNA in each well was 100 nM. Cells were cultured for 48h at 37 degrees C in 5% CO2 before addition of […] of TLR ligand Pam3CSK4 for 5 hours. The medium was then removed, replaced with […] growth media and cell were transfected with […] of LipidA and TransIT-TKO (Mirus) for 24 hour. At the end of the LipidA treatment, […] of supernatant was transferred to a 384 Greiner Bio-one non-binding low volume plate and […] of IL-1a HTRF reagent (Cisbio, 62MIL1APEH) was added and incubated at room temperature overnight. The plates were read on an EnVision plate reader (PerkinElmer). Cell viability was measured by adding 20ul Cell Titer Glo to the original plate and running a luminescence read on the EnVision. The quantified IL-1a signal for each siRNA gene-targeted well was divided by the median of the negative control wells and multiplied by 100 to achieve a negative control normalized value for each well/siRNA. This normalized value was then used to generate a robust z-score by first taking the log of each value and then by subtracting the median and dividing by the […].

| Sequence | z-score |
| --- | --- |
| GGAGAGCACCGAUGAAAAUTT against Mcam | inactive: 0.239 |
| CCUACCAUACCAUGAGCAGTT against Pou4f3 | inactive: 1.52 |
| GCCCGUUACUAUUGUUGAGTT against Incenp | inactive: 0.149 |
| GACCAGAUUCUUACUUUGGTT against Olfr9 | inactive: 0.296 |
| CCUAUGACUGUAUGUUUUGTT against Hnrnpr | inactive: 0.577 |
| CCAGGAAUAGAUAAACUCUTT against Olfr120 | inactive: -0.307 |
| GGAAAAUCUUAGGAAGAUGTT against Elf4 | inactive: -0.39 |
| CCGAGAGUGCUGGAUGAUATT against Tnfaip8l1 | inactive: -0.598 |
| GGACGGGACUUACAUAGUGTT against Hsfy2 | inactive: 0.373 |
| GGAUGUCAGUAAUCAAUAGTT against Oxct1 | inactive: -0.498 |
| CUCGCUAGAGAAAGACAGATT against Olfr111 | inactive: 0.562 |
| GGGUUCGAUGUUGAAAAAGTT against Lzic | inactive: -0.23 |
| GCUCAUACCUAUCUCAAGGTT against Tnfsf9 | inactive: 0.365 |
| GGCCGUGUCGUACACUAUGTT against Nyap1 | inactive: 0.937 |
| GCAGAUGGCACAAUAUGAATT against Ppy | inactive: -0.738 |
| GCAACCGCGUCACAUUGAATT against Bicc1 | inactive: 0.655 |
| GGAUCUAUGACAAAAGAAGTT against Snx5 | inactive: -0.199 |
| GGUGCUUGGGAAUUUUGAUTT against Gpsm2 | active: 2.31 |
| GGCUCUUCAACCUCUUACUTT against Ddost | inactive: -1.49 |
| GCAUUCAACUCAGAUCUCUTT against Fat3 | inactive: -0.536 |
| CCAGAACUAGCAAUAAAUATT against Noxa1 | inactive: -0.0513 |
| GGCAAUAUGAAGGAGGUUUTT against Ckm | inactive: 1.9 |

| Sequence | z-score |
| --- | --- |
| GGUUUCUUAGAUUAGCUAGTT against Map3k12 | inactive: 0.445 |
| GGUGGUUGGUACCUACAAUTT against Ghdc | inactive: 1.37 |
| CGCCUCAUCAUCUCGAUUCTT against Cnga3 | inactive: -1.63 |
| GGUCAUCAGCUUGUAACCATT against Mmadhc | inactive: -1.37 |
| GCAAGCUUAGUGAAACUCUTT against Sdr42e1 | inactive: 0.395 |
| GCAACACAAACACUGGCUATT against D930020B18Rik | inactive: -1.57 |
| GGCUGUAUUUGGACAAAGCTT against Nxt2 | inactive: 1.42 |
| GCAAAACAGAAUCAUCCUCTT against Taar6 | inactive: -0.0022 |
| CGGCGAGUUCAGAAACAGCTT against Dab2ip | inactive: 0.363 |
| GGAGUCACCAGACUUGUGUTT against Svs3b | inactive: 0.637 |
| GGUCAACACCUUAGAAACUTT against Lyn | inactive: -0.928 |
| CCUACUGGAAAAGAUAAUUTT against Stfa1 | inactive: 1.82 |
| GCCCUCCGAGAAAAACAUCTT against Gjb5 | active: 2.05 |
| GGUUAUUAUGUGUUUGACUTT against Atxn7 | inactive: 0.769 |
| GAGCUUUUCGCCAGAAGUGTT against Tcstv3 | inactive: -0.905 |
| GGUAAGGGUAAAGAUUCUUTT against Pgk2 | inactive: 0.249 |
| CCGACUUGAGGUUUCAAAGTT against H3f3b | inactive: -0.74 |
| GCCAAAUGCGUUAUCAAUGTT against Gpd2 | inactive: 1.3 |
| CCUCAUCGAUGCACUACCCTT against Lrfn4 | inactive: -0.338 |
| GGCAAAUCCCGUUUCCAGATT against Hspb3 | inactive: 0.325 |
| GGCACGUCUGGACAACAUCTT against Cd22 | inactive: -0.707 |
| CGCGAUUCUGGAUGAGAACTT against Cacnb3 | inactive: 0.6 |

| Sequence | z-score |
| --- | --- |
| GGAAAUACGACAACAGCCATT against 2700097O09Rik | inactive: -0.383 |
| GGAUGUGUCAGAAAAGUUATT against Lars2 | inactive: 0.641 |
| GGUGGAUCUUCCUCAAAGUTT against Sharpin | inactive: -1.89 |
| GCAGGAUCCUGAAACCAUGTT against Lrrc14 | active: -2.09 |
| CCGUAAGGAUGAAGAGAUATT against Casp8ap2 | inactive: -0.966 |
| CCUUCAACAGAUCUAGAGUTT against Rexo1 | active: 2.36 |
| GGCAAAAAGACUUUGAUAUTT against Dnajc1 | inactive: 0.405 |
| GGCCAUUGCUCAAUGGAAGTT against Rtp2 | inactive: 0.094 |
| GGAUGGGAAGACUACCCGATT against Camta2 | active: -2.62 |
| CCGACAUUUUCGUCACCAGTT against Gabra1 | inactive: -1 |
| GCCUAAACAAGCCGAUGUGTT against Gap43 | inactive: 0.837 |
| GGUGCUGACUGACAAAGAATT against Tnfaip1 | inactive: 1.05 |
| CCGUUCACAUGCAUCACUGTT against Olfr1378 | inactive: 0.0824 |
| CCAAGAGACCUUUGGACGATT against Tgfbrap1 | inactive: 0.606 |
| GGAAAUGAAGCUAGUUUAATT against Usp38 | inactive: 0.944 |
| GCGUGCUGGUUUUCUGAUUTT against Sbno2 | inactive: 0.333 |
| GGGACAUGUUUUGAUAAAGTT against Yy1 | inactive: -0.591 |
| GAACCAGACUAAGAACUGUTT against Cox6b1 | active: 5.31 |
| GGCCAUGGAGAACAUAUGCTT against Trpm8 | active: -2.09 |
| GGUAUUCAUAAGAACACAGTT against Plin4 | inactive: -0.644 |
| GGAGUGUGUGCUGUCAGAATT against Nr1h3 | inactive: 0.717 |
| GUUGUGGUAUCUUGGGCAGTT against Olfr1217 | inactive: 1.81 |

Quoted from the listing.
Value of GGCAAAAAGACUUUGAUAUTT against Dnajc1 under z-score: inactive: 0.405
Value of GGUGCUGACUGACAAAGAATT against Tnfaip1 under z-score: inactive: 1.05
Value of CCGUAAGGAUGAAGAGAUATT against Casp8ap2 under z-score: inactive: -0.966
Value of CCGUUCACAUGCAUCACUGTT against Olfr1378 under z-score: inactive: 0.0824
Value of GAACCAGACUAAGAACUGUTT against Cox6b1 under z-score: active: 5.31

Additional results

| Sequence | z-score |
| --- | --- |
| GGAUUAUUACAUCGAGCUUTT against Idi1 | inactive: -0.155 |
| GGCAUUGAAUUUGACUGGATT against Tmem147 | inactive: 0.691 |
| GCUUACUUUGGAACACAAATT against Tex18 | inactive: 1.22 |
| GCUAUACGCUCAAGCUAAATT against Fbxl8 | inactive: 0.2 |
| GGAUCUUUGAUAGUUGAGATT against Hspd1 | inactive: 0.0307 |
| CGAUCCUCAUCUUUAUAUATT against Agbl1 | inactive: -0.33 |
| CCACGGUUUCAUUUACUAATT against Tm7sf3 | inactive: 0.142 |
| CCACAUGAUGUAAAACUUATT against P4ha1 | inactive: 0.52 |
| GGUUAUGGUAUUAACAGGUTT against Slc17a4 | inactive: 0.112 |
| GGCCUUCAAUCACCUAGAGTT against Pde6g | inactive: -0.891 |
| GGAGUUUUAUGGACGAGGATT against Nenf | inactive: -0.319 |
| GCAGUAUGAGGUAAAUUAUTT against Amer3 | inactive: 1.05 |
| GGGAGACAACCAAAGUGAATT against Cngb3 | inactive: -0.525 |
| GGCCUUCACUAAGAGACGATT against C130073F10Rik | inactive: -0.0402 |
| GGUACUGUGUUCUGUCUGCTT against B230325K18Rik | inactive: 0.884 |
| CCCUUGUCUAAAAUAUACATT against Zfp941 | inactive: -0.387 |
| CCAUUAUGAGUGUGUUAAATT against Npc1 | inactive: 0.84 |
| GGAGGUAGGAAAGUGGAUCTT against Gdi1 | inactive: -0.658 |
| CCCAUGGAUUGGCAAGUUGTT against Sat1 | inactive: -0.397 |
| GGGCAUAUGAUAAUCAUACTT against Shpk | inactive: -1.01 |
| CCCAAACGUGGAAGGACCUTT against Sgk2 | inactive: -0.127 |
| GGGUCUUUGUCAGACAAGCTT against Sftpc | inactive: 0.107 |

| Sequence | z-score |
| --- | --- |
| GGUUUUGGUAUCUCCAUGGTT against Olfr2 | inactive: -0.48 |
| CCAUGCUAUUCUGGUUUCATT against Tas2r138 | inactive: 0.256 |
| GCUCAGACCGUGAUUGUAUTT against Chchd10 | inactive: -1.36 |
| GCAAGACUGAAAAUCCUGATT against Timm8a2 | inactive: -1.2 |
| CCCUUGAGUCAUUCUCUAATT against Gsto1 | inactive: 0.0391 |
| CCAUACGAAAAAAACUGUCTT against Nfasc | inactive: -0.5 |
| CGAAAUCGCGUUAUUUUCUTT against Rora | inactive: 1.21 |
| GUGCAAGGUGUAUGAAUCUTT against Cldn5 | inactive: 1.29 |
| GCUGUUAGACCUCUUGAUUTT against Olfr1164 | inactive: 0.0632 |
| GGUUGUAGAUAUUUCAGACTT against Xiap | inactive: 0.444 |
| ACAGGUACACUUCUUUGUGTT against Ccdc149 | inactive: -1.84 |
| GCUUACCUAACUCUUAAACTT against Adgrg6 | inactive: 0.427 |
| GGCACGGUGGUGAUAACUUTT against C5ar2 | inactive: 1.12 |
| GGUCUCUUUCAUGCUCGCATT against Agr3 | active: 3.06 |
| GCGGCUAAUUUGCACUCGUTT against Jtb | inactive: 1.45 |
| GCCCUCCUAUAUCGUAUGGTT against Fbxw14 | inactive: -0.164 |
| GGGUUAUCUCUUAAUGGCATT against Fundc1 | inactive: -0.185 |
| GCAGCUACUACACCAACCATT against Dlx2 | active: -2.46 |
| CCUUUGGCAACAUCGUUUATT against Arrdc4 | inactive: 0.862 |
